Source: PubChem BioAssay AID504842 (National Center for Advancing Translational Sciences (NCATS), 2011)
About 100 (0.03%) of roughly 330,000 compounds were called active. The shares of active, inactive and inconclusive entries below differ from those in the screen. Calls come from the whole dose curve; as a rule, active = well fitted inhibition curve with a large enough effect; inconclusive = small, poorly fitted or top-dose-only effect; inactive = flat fitted curve, though single readings scatter. A potency beside an inconclusive call is a rough fit, not a confirmed value.

test system: Chaperonin Mm-Cpn (Methanococcus maripaludis); assay: Inhibitors of TCP-1 ring complex (TRiC) of Methanococcus maripaludis (MmCpn): qHTS; conditions: purified Mm-Cpn ATPase, ADP Transcreener TR-FRET; activity, negative = inhibition: at the top concentration; note: nearly all actives have a fitted effect of over 80% in size;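 for potency: enzyme at 25 nM with ATP substrate at 10 µM during the reaction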
In short: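 Measured: ADP formation by purified Mm-CPN. Conditions: 25 nM protein, 10 uM ATP, Tris pH 7.4 with Mg2+, K+ and DTT, 37°C for 30 min. Detection: Transcreener HTRF after 30 min at room temperature.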
% is set by controls: 0 for no effect and ±100 for the full control effect; potency is the fitted concentration of half-maximal effect.

Row | SMILES | Potency | activity, negative = inhibition
1 | COc1ccc(CNC(=O)C2CCN(c3nccs3)CC2)cc1 | inconclusive: 79.4 µM [inhibitor, single point] | 
2 | Cc1ccccc1NC(=O)C(C)OC(=O)C1CC(=O)N(Cc2ccco2)C1 (configuration not stated) | inconclusive: 12.6 µM [inhibitor, partial curve, poor fit] | 
3 | Cn1c(C(=O)NCCN2CCN(Cc3ccccc3)CC2)cc2c(=O)n(C)c3ccccc3c21 | inconclusive: 39.8 µM [inhibitor, partial curve, poor fit] | 
4 | O=C(c1cnn2ccccc12)N1CCc2ccccc21 | inconclusive: 100 µM [inhibitor, single point] | 
5 | CC(NC(=O)Cn1cc(C(F)(F)F)ccc1=O)c1ccc(F)cc1 (configuration not stated) | inconclusive: 25.1 µM [inhibitor, single point] | 
6 | COc1ccccc1N(C)S(=O)(=O)c1ccc(C(=O)OCC(=O)c2c[nH]c3ccccc23)cc1 | inconclusive: 251 µM [inhibitor, partial curve, poor fit] | 
7 | O=C(/C=C/c1ccc(F)cc1)N1CCCc2ccccc21 |  | inactive: -0.0101%
8 | COc1cc(OC)cc(C(=O)NCC(=O)OCC(=O)c2ccc3c(c2)-c2ccccc2C3)c1 | inconclusive: 63.1 µM [inhibitor, partial curve] | 
9 | C=CCn1c(C)cc(C(=O)Cn2c(C(C)O)nc3ccccc32)c1C (configuration not stated) | inconclusive: 20 µM [inhibitor, single point] | 
10 | COCCCC1CCN(C(=O)c2cc(COc3ccc(C)nc3)on2)CC1 |  | inactive: -0.53%
11 | Cn1cccc1/C=C1\SC(=S)N(NC(=O)c2ccccc2O)C1=O |  | inactive: -4.06%
12 | Cc1ccc(S(=O)(=O)N2CCN(C(=O)COC(=O)c3cccnc3Cl)CC2)c(C)c1 |  | inactive: 0.615%
13 | Cc1ccc(C(=O)N/C(=C\c2cn(C)c3ccccc23)C(=O)NCCN2CCOCC2)cc1 | inconclusive: 31.6 µM [inhibitor, single point] | 
14 | c1ccc(-c2cc3ccccc3nc2N2CCCC2)cc1 |  | inactive: -0.677%
15 | O=C(NC1CCCCC1)c1sc(N2CCOCC2)nc1-c1ccccc1 | inconclusive: 100 µM [inhibitor, single point] | 
16 | CCCCCc1nnc(NC(=O)C2COc3ccccc3O2)s1 (configuration not stated) |  | inactive: -0.808%
17 | Cc1onc(-c2ccccc2)c1C(=O)NC(C)c1ccc2c(c1)OCO2 (configuration not stated) | inconclusive: 100 µM [inhibitor, partial curve, poor fit] | 
18 | COc1cc(/C=N/NC(=O)c2nnn(-c3nonc3N)c2-c2cccs2)ccc1O | inconclusive: 14.1 µM [inhibitor, single point] | 
19 | Cc1ccc2cc(C=C(C#N)C#N)c(N3CCCCC3)nc2c1 | inconclusive: 178 µM [inhibitor, partial curve, poor fit] | 
20 | Cc1ccc(OC(=O)c2cc(=O)c3ccccc3o2)cc1 | inconclusive: 22.4 µM [inhibitor, single point] | 
21 | C#CCn1c(=NC(=O)c2ccc(S(=O)(=O)N3CCc4ccccc4C3)cc2)sc2cc(S(N)(=O)=O)ccc21 | inconclusive: 100 µM [inhibitor, single point] | 

Row | SMILES | Potency | activity, negative = inhibition
22 | CCSc1nc(-c2ccc(OC)cc2)cc(-c2ccccc2)c1C#N | inconclusive: 100 µM [inhibitor, single point] | 
23 | COc1cc(/C=C2/SC(=S)N(CCC(=O)Nc3ccccc3)C2=O)cc(OC)c1OC | inconclusive: 100 µM [inhibitor, single point] | 
24 | Cc1cc(OCc2cc(C(=O)N(C)Cc3ccccn3)no2)cc(C)c1Cl |  | inactive: 1.92%
25 | CN(C)S(=O)(=O)c1cccc(NC(=O)c2cc(-c3cccs3)nn2-c2cccc(Cl)c2)c1 | inconclusive: 112 µM [inhibitor, partial curve, poor fit] | 
26 | COC(=O)c1ccc(CSc2cc(C)c3ccccc3n2)o1 | inconclusive: 56.2 µM [inhibitor, partial curve, poor fit] | 
27 | COC(=O)c1ccccc1NC(=O)Cc1nc(-c2ccccc2)sc1-c1ccc(C)cc1 | inconclusive: 141 µM [inhibitor, partial curve, poor fit] | 
28 | O=c1cc(N2CCN(c3ccccc3)CC2)[nH]c(=O)n1C1CCCCC1 | inconclusive: 79.4 µM [inhibitor, single point] | 
29 | CCCC(=O)Nc1nc(C)c(-c2csc(Nc3ccccc3C)n2)s1 | inconclusive: 316 µM [inhibitor, partial curve, poor fit] | 
30 | COC(=O)C1=C(Nc2ccccc2NS(=O)(=O)c2ccc(C(F)(F)F)cc2Cl)CSC1 | inconclusive: 20 µM [inhibitor, single point] | 
31 | CCOc1ccccc1NC(=O)CSc1nc(N)c(C#N)cc1C#N | inconclusive: 126 µM [inhibitor, partial curve, poor fit] | 
32 | Cc1c(Cl)cccc1N1C(=O)CC(NNC(=O)c2cccs2)C1=O (configuration not stated) | inconclusive: 11.2 µM [inhibitor, single point] | 
33 | O=C(Nc1cccc(S(=O)(=O)N2CCCCC2)c1)c1cc2ccccc2o1 | inconclusive: 100 µM [inhibitor, single point] | 
34 | CN(C)C(=O)N1CCN(c2nc(-c3ccccc3)cs2)CC1 | inconclusive: 50.1 µM [inhibitor, single point] | 
35 | C=CCCC(=O)Nc1nc(C)c(-c2csc(Nc3ccccc3OC)n2)s1 | inconclusive: 89.1 µM [inhibitor, single point] | 
36 | CN(c1nc2ccccc2n2c(-c3ccco3)nnc12)S(=O)(=O)c1ccccc1 | inconclusive: 63.1 µM [inhibitor, single point] | 
37 | O=C(c1ccoc1)N1CCC2(CCCN(Cc3ccc(F)c(F)c3)C2)C1 (configuration not stated) | inconclusive: 89.1 µM [inhibitor, single point] | 
38 | CN(C)/C=N/c1ncc(C(=O)c2ccc(-c3ccccc3)cc2)s1 | inconclusive: 224 µM [inhibitor, partial curve, poor fit] | 
39 | CC(=O)NC(C)C(=O)OCC(=O)c1ccc(-c2ccccc2)cc1 (configuration not stated) | inconclusive: 100 µM [inhibitor, single point] | 
40 | COCCNC(=S)N(Cc1cc2cc(C)ccc2n2nnnc12)C1CCCC1 | inconclusive: 25.1 µM [inhibitor, partial curve, poor fit] | 
41 | CCOC(=O)c1cn(-c2ccccc2)nc1-c1cccnc1 |  | inactive: 1.4%
42 | Fc1cnc(Cl)nc1N1CCN(c2ccccc2)CC1 | inconclusive: 25.1 µM [inhibitor, single point] | 

Whole records, quoted from the list.
CCSc1nc(-c2ccc(OC)cc2)cc(-c2ccccc2)c1C#N in the list: Potency: inconclusive: 100 µM [inhibitor, single point]
CCOC(=O)c1cn(-c2ccccc2)nc1-c1cccnc1 in the list: activity, negative = inhibition: inactive: 1.4%
COC(=O)C1=C(Nc2ccccc2NS(=O)(=O)c2ccc(C(F)(F)F)cc2Cl)CSC1 in the list: Potency: inconclusive: 20 µM [inhibitor, single point]
O=C(Nc1cccc(S(=O)(=O)N2CCCCC2)c1)c1cc2ccccc2o1 in the list: Potency: inconclusive: 100 µM [inhibitor, single point]

(list continues)

Row | SMILES | Potency | activity, negative = inhibition
43 | CN(CC(=O)Nc1ccc(Cl)c(Cl)c1)C(=O)C12CC3CC(CC(C3)C1)C2 | inconclusive: 89.1 µM [inhibitor, single point] | 
44 | O=S(=O)(c1cccc2nonc12)N1CCN(c2ccc(F)cc2)CC1 | inconclusive: 562 µM [inhibitor, partial curve, poor fit] | 
45 | O=C(NC(=S)Nc1ccc(Cl)c(C(=O)O)c1)c1cncc(Br)c1 | inconclusive: 10 µM [inhibitor, partial curve, poor fit] | 
46 | O=C(Nc1ccc(-c2csc(Nc3cccc(C(F)(F)F)c3)n2)cc1)c1ccccc1 |  | inactive: -3.8%
47 | O=C(NNC1=C(C(=O)C(F)(F)F)CCC1)c1ccccc1O |  | inactive: -0.516%
48 | CCN1C(=O)[C@@H]2[C@@H](c3ccc(-c4ccc(F)cc4)cc3)N3CCCC[C@@]3(C(=O)OC)[C@@H]2C1=O | inconclusive: 14.1 µM [inhibitor, single point] | 
49 | Cc1ccc(N2CCN(C(=O)c3ccccc3NC(=O)c3ccccc3C(=O)O)CC2)cc1 | inconclusive: 63.1 µM [inhibitor, single point] | 
50 | O=c1c(-c2ccc3c(c2)OCCO3)coc2cc(OC3OC(CO)C(O)C(O)C3O)ccc12 (configuration not stated) | inconclusive: 14.1 µM [inhibitor, partial curve, poor fit] | 
51 | CCOc1ccc(/C=N/NC(=O)c2ccc(CSc3nc4ccccc4[nH]3)cc2)cc1 | inconclusive: 501 µM [inhibitor, partial curve, poor fit] | 
52 | COC(=O)COc1ccc(-c2ccccc2)cc1C=O | inconclusive: 89.1 µM [inhibitor, single point] | 
53 | CC(C)(C)NCCOc1ccc(Br)cc1 |  | inactive: -0.513%
54 | O=C1CN(C(=O)CN2CCCC2)C(c2ccccc2)c2cc(Br)ccc2N1 (configuration not stated) | inconclusive: 11.2 µM [inhibitor, partial curve, poor fit] | 
55 | COc1ccccc1C(=O)Nc1nc(-c2ccc(S(=O)(=O)N3CCOCC3)cc2)cs1 | inconclusive: 50.1 µM [inhibitor, partial curve, poor fit] | 
56 | O=C(N/N=C/c1c[nH]c2ccccc12)c1ccc([N+](=O)[O-])cc1Cl | inconclusive: 20 µM [inhibitor, single point] | 
57 | O=C(CSc1n[nH]c(-c2ccncc2)n1)NC1CCS(=O)(=O)C1 (configuration not stated) | inconclusive: 100 µM [inhibitor, partial curve, poor fit] | 
58 | COc1cccc(CNC(=O)C23CN(Cc4ccccc4)CC2C(c2ccc([N+](=O)[O-])cc2)=NO3)c1 (configuration not stated) | inconclusive: 89.1 µM [inhibitor, single point] | 
59 | CCOC(=O)NNC(=O)c1[nH]c2ccc(Br)cc2c1-c1ccccc1 | inconclusive: 282 µM [inhibitor, partial curve, poor fit] | 
60 | O=C(Nc1nc(-c2cccs2)cs1)c1ccc(S(=O)(=O)N2CCCCC2)cc1 | active: 44.7 µM | 
61 | c1cncc(Cc2cc3ccccc3[nH]2)c1 | inconclusive: 17.8 µM [inhibitor, single point] | 
62 | CCN(CC(=O)Nc1c(F)cccc1F)C(=O)CCNS(=O)(=O)c1ccc(C)c(C)c1 | inconclusive: 25.1 µM [inhibitor, single point] | 

Two entries drawn at random from the list so far, as already listed:
Row | SMILES | Potency | activity, negative = inhibition
7 | O=C(/C=C/c1ccc(F)cc1)N1CCCc2ccccc21 |  | inactive: -0.0101%
1 | COc1ccc(CNC(=O)C2CCN(c3nccs3)CC2)cc1 | inconclusive: 79.4 µM [inhibitor, single point] | 
